Some results were stated once for a whole list of compounds, not compound by compound. For some of these results: At least one compound was matched to its structure with a doubt left.
Tests used:
[1] = target: ROCK; experiment: ROCK Inhibition Assay (standard coupled enzyme assay); type: biochemical; settings: 13 μM ATP, 200 μM peptide, 30° C.
[2] = target: T1, p70S6K (Homo sapiens, UniProt P23443); experiment: p70S6K Inhibition Assay (radioactive-phosphate incorporation assay); type: biochemical; settings: 15 μM ATP, 100 μM peptide, 30° C.
T1 construct: fused on or other part: His6 tag, from knowledge of the vendor's product

Chains of the proteins cited; added tags and fusions are not shown.
UniProt P23443, whole entry T412E: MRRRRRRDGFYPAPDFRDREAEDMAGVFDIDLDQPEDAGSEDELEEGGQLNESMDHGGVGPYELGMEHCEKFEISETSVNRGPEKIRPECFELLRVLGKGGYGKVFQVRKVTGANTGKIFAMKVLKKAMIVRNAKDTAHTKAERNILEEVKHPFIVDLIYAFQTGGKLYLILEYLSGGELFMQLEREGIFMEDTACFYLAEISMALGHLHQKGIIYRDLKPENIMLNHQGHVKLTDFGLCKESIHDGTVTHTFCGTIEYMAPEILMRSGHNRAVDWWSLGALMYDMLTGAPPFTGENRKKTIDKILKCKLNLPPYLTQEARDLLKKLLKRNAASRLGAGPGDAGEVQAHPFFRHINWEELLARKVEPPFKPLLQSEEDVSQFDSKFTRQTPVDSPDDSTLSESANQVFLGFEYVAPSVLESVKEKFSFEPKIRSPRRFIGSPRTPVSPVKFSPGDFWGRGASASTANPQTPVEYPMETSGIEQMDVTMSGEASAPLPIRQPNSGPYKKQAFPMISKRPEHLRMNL

| SMILES | Ki [1] | Ki [2] |
| --- | --- | --- |
| O=C(Cc1cccc(O)c1)Nc1ccc2c(c1)C(=O)NC2=O [Compound I-102] | ≤ 2000 nM | ≤ 2000 nM |
| Cc1cccc(NCC(=O)Nc2ccc3c(c2)C(=O)NC3=O)c1 [Compound I-31] | ≤ 2000 nM | ≤ 2000 nM |
| O=C(CSc1ccccc1Cl)Nc1ccc2c(c1)C(=O)NC2=O [Compound I-58] | ≤ 2000 nM | ≤ 2000 nM |
| Cc1ccc(SCC(=O)Nc2ccc3c(c2)C(=O)NC3=O)cc1 [Compound I-3] | ≤ 2000 nM | ≤ 2000 nM |
| O=C(Cc1ccc(F)cc1Cl)Nc1ccc2c(c1)C(=O)NC2=O [Compound I-104] | ≤ 2000 nM | ≤ 2000 nM |
| O=C(Cc1ccccc1)Nc1ccc2c(c1)C(=O)NC2=O [Compound I-83] | ≤ 2000 nM | ≤ 2000 nM |
| O=C(Cc1ccccc1Cl)Nc1ccc2c(c1)C(=O)NC2=O [Compound I-10] | ≤ 2000 nM | ≤ 2000 nM |
| O=C(CNc1ccc(F)c(Cl)c1)Nc1ccc2c(c1)C(=O)NC2=O [Compound I-39] | ≤ 2000 nM | ≤ 2000 nM |
| O=C(CSc1cccc(Br)c1)Nc1ccc2c(c1)C(=O)NC2=O [Compound I-55] | ≤ 2000 nM | ≤ 2000 nM |
| O=C(CSc1cccc(O)c1)Nc1ccc2c(c1)C(=O)NC2=O [Compound I-81] | ≤ 2000 nM | ≤ 2000 nM |
| O=C(Cc1ccc(Cl)cc1)Nc1ccc2c(c1)C(=O)NC2=O [Compound I-113] | ≤ 2000 nM | ≤ 2000 nM |
| O=C(CSc1ccc(F)c(Cl)c1)Nc1ccc2c(c1)C(=O)NC2=O [Compound I-60] | ≤ 2000 nM | ≤ 2000 nM |
| COc1ccc(NCC(=O)Nc2ccc3c(c2)C(=O)NC3=O)cc1Cl [Compound I-36] | ≤ 2000 nM | ≤ 2000 nM |
| O=C(Cc1ccc(Cl)c(Cl)c1)Nc1ccc2c(c1)C(=O)NC2=O [Compound I-108] | ≤ 2000 nM | ≤ 2000 nM |
| COc1cccc(NCC(=O)Nc2ccc3c(c2)C(=O)NC3=O)c1 [Compound I-88] | ≤ 2000 nM | ≤ 2000 nM |
| O=C(CNc1cccc2[nH]ccc12)Nc1ccc2c(c1)C(=O)NC2=O [Compound I-72] | ≤ 2000 nM | ≤ 2000 nM |
| O=C(Cc1cccc(C(F)(F)F)c1F)Nc1ccc2c(c1)C(=O)NC2=O [Compound I-120] | ≤ 2000 nM | ≤ 2000 nM |
| O=C(COc1ccc(Cl)cc1)Nc1ccc2c(c1)C(=O)NC2=O [Compound I-74] | ≤ 2000 nM | ≤ 2000 nM |
| O=C(CSc1cccc2ccccc12)Nc1ccc2c(c1)C(=O)NC2=O [Compound I-56] | ≤ 2000 nM | ≤ 2000 nM |

| SMILES | Ki [1] | Ki [2] |
| --- | --- | --- |
| O=C(Cc1cccc(F)c1F)Nc1ccc2c(c1)C(=O)NC2=O [Compound I-122] | ≤ 2000 nM | ≤ 2000 nM |
| O=C(Cc1cc(F)cc(F)c1F)Nc1ccc2c(c1)C(=O)NC2=O [Compound I-101] | ≤ 2000 nM | ≤ 2000 nM |
| O=C(Cc1cccc(Cl)c1)Nc1ccc2c(c1)C(=O)NC2=O [Compound I-112] | ≤ 2000 nM | ≤ 2000 nM |
| Cc1ccc(NCC(=O)Nc2ccc3c(c2)C(=O)NC3=O)c(C)c1 [Compound I-34] | ≤ 2000 nM | ≤ 2000 nM |
| O=C(CSc1cccc(Cl)c1)Nc1ccc2c(c1)C(=O)NC2=O [Compound I-6] | ≤ 2000 nM | ≤ 2000 nM |
| O=C(Cc1cc(F)ccc1F)Nc1ccc2c(c1)C(=O)NC2=O [Compound I-114] | ≤ 2000 nM | ≤ 2000 nM |
| O=C(CSc1ccc(F)cc1)Nc1ccc2c(c1)C(=O)NC2=O [Compound I-5] | ≤ 2000 nM | ≤ 2000 nM |
| Cc1ccc(OCC(=O)Nc2ccc3c(c2)C(=O)NC3=O)cc1 [Compound I-84] | ≤ 2000 nM | ≤ 2000 nM |
| O=C(Cc1cc(F)c(Cl)cc1Cl)Nc1ccc2c(c1)C(=O)NC2=O [Compound I-105] | ≤ 2000 nM | ≤ 2000 nM |
| O=C(CCc1ccccc1)Nc1ccc2c(c1)C(=O)NC2=O [Compound I-95] | ≤ 2000 nM | ≤ 2000 nM |
| O=C(CSc1ccc(Cl)c(Cl)c1)Nc1ccc2c(c1)C(=O)NC2=O [Compound I-64] | ≤ 2000 nM | ≤ 2000 nM |
| Cc1cc(C)cc(SCC(=O)Nc2ccc3c(c2)C(=O)NC3=O)c1 [Compound I-59] | ≤ 2000 nM | ≤ 2000 nM |
| Cc1ccc(SCC(=O)Nc2ccc3c(c2)C(=O)NC3=O)c(C)c1 [Compound I-77] | ≤ 2000 nM | ≤ 2000 nM |
| O=C(CNc1cccc(OCc2ccccc2)c1)Nc1ccc2c(c1)C(=O)NC2=O [Compound I-29] | ≤ 2000 nM | ≤ 2000 nM |
| O=C(CNc1cccc(Cl)c1)Nc1ccc2c(c1)C(=O)NC2=O [Compound I-99] | ≤ 2000 nM | ≤ 2000 nM |
| O=C(Cc1cccc(C(F)(F)F)c1)Nc1ccc2c(c1)C(=O)NC2=O [Compound I-68] | ≤ 2000 nM | ≤ 2000 nM |
| COc1cccc(CC(=O)Nc2ccc3c(c2)C(=O)NC3=O)c1 [Compound I-49] | ≤ 2000 nM | ≤ 2000 nM |
| O=C(CSc1ccc(F)cc1F)Nc1ccc2c(c1)C(=O)NC2=O [Compound I-57] | ≤ 2000 nM | ≤ 2000 nM |
| O=C(Cc1cc2c(cc1Cl)OCO2)Nc1ccc2c(c1)C(=O)NC2=O [Compound I-69] | ≤ 2000 nM | ≤ 2000 nM |

— patent publication US20050182061A1, “Phthalimide compounds useful as protein kinase inhibitors” (priority 2003, published 2005)
